# PubChem BioAssay AID493246 | Drosophila RNAi Screening Center | 2011
# Screen: 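Genome-wide search for dsRNAs that reduce cell number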 (primary screen)
# Cells: Drosophila Kc and S2R+ cells
# Reagent: long dsRNA against Drosophila genes
# Read-out: 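Raw, unnormalised count of remaining cells in each well; per-plate z-scores of cell number underlie the calls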
# Direction: Kc cell number and S2R+ cell number: higher = more cells remaining
# Rule for the call: 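Counted as a hit if cell number falls by a z-score of at least 3 within its plate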
# The deposit covers about 21,000 reagents; shown is a random part of those that have a named target and a result. In the full data, 429 (2%) were called active. 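Values are raw and not normalised between plates; calls rest on per-plate z-scores that were not deposited.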 A number with no mark means an inactive call. The numbers tell different reagents against one gene apart. Names joined by + are all predicted targets of the reagent. Not given: the amount of reagent, the time to read-out.
target gene,dsRNA no.,"Kc cell number, rep 1","Kc cell number, rep 2","S2R+ cell number, rep 1","S2R+ cell number, rep 2"
crok,1,1.60e6,1.65e6,1.32e6,1.43e6
lic,1,5.87e5,,9.70e5,
CG8292,1,1.56e6,1.63e6,1.14e6,1.29e6
CG7201,1,1.59e6,1.43e6,1.12e6,1.23e6
CG34006 (retired record),1,1.09e6,1.66e6,1.08e6,1.14e6
CG6696,1,1.48e6,1.54e6,9.76e5,1.15e6
CG4563,1,1.49e6,1.54e6,1.29e6,1.36e6
CG6689,1,1.59e6,1.73e6,1.44e6,1.58e6
CG43078,1,1.26e6,1.31e6,1.26e6,1.09e6
CG43078,2,1.50e6,1.56e6,1.30e6,1.07e6
Nplp2,1,1.40e6,1.27e6,1.31e6,1.41e6
CG5808,1,1.57e6,1.59e6,1.21e6,1.29e6
CG3308,1,1.59e6,1.60e6,1.29e6,1.35e6
shams,1,1.43e6,1.37e6,9.23e5,1.03e6
CG8281,1,1.44e6,1.57e6,1.25e6,1.30e6
CG11585,1,1.55e6,1.51e6,1.06e6,1.14e6
CheA86a,1,1.56e6,1.61e6,1.03e6,1.21e6
CG12464,1,1.47e6,1.53e6,1.23e6,1.32e6
ng4,1,1.57e6,1.56e6,1.13e6,1.23e6
CG15764,1,1.60e6,1.55e6,1.11e6,1.22e6
Hsl,1,1.37e6,1.43e6,1.11e6,1.20e6
CG34354,1,1.28e6,1.56e6,1.14e6,1.10e6
CG34354,2,1.19e6 (active),1.23e6,5.34e5,5.98e5
CG34354,3,9.54e5 (active),9.73e5,5.17e5,6.37e5
CG34354,4,1.44e6,1.46e6,9.96e5,1.11e6
CG31528,1,1.30e6,1.42e6,1.09e6,1.28e6
CG14877,1,1.36e6,1.37e6,1.06e6,1.21e6
Wsck,1,1.26e6,1.45e6,1.08e6,1.17e6
oaf,1,1.49e6,1.53e6,9.97e5,1.11e6
drd,1,1.53e6,1.54e6,1.20e6,1.24e6
CG3566,1,1.79e6,1.74e6,1.17e6,1.28e6
COX4L,1,1.47e6,1.54e6,1.27e6,1.20e6
sol,1,1.47e6,1.48e6,9.64e5,1.09e6
CG7742,1,1.29e6,1.26e6,6.38e5,1.02e6
COX6B,1,1.47e6,1.51e6,9.62e5,1.03e6
bor,1,1.43e6,1.42e6,1.10e6,1.27e6
CG9483,1,8.82e5,1.00e6,8.83e5,8.36e5
CG32708,1,1.59e6,1.70e6,1.07e6,1.23e6
Act5C,1,1.24e6,1.32e6,9.28e5,9.83e5
GstD8,1,1.53e6,1.63e6,1.21e6,1.33e6
Grx5,1,1.83e6,1.86e6,1.11e6,1.29e6
CG13488,1,1.71e6,1.86e6,1.45e6,4.51e5
Syx18,1,1.63e6,1.67e6,1.05e6,1.14e6
CG44837,1,1.29e6,1.34e6,9.45e5,1.06e6
CG44837,2,1.38e6,1.35e6,1.20e6,1.35e6
Pp2C1,1,6.34e5,,7.77e5,
CG42245 + MEP-1,1,1.59e6,1.73e6,1.05e6,1.22e6
CG42245 + MEP-1,2,1.34e6,1.41e6,9.09e5,1.07e6
Sfmbt,1,1.35e6,1.38e6,1.25e6,1.35e6
pyd3,1,1.53e6,1.74e6,1.10e6,1.25e6
CG1387,1,5.44e5,,8.66e5,
CG8750,1,1.71e6,1.60e6,1.38e6,1.49e6
CG10561,1,1.30e6,1.36e6,1.31e6,1.31e6
CG15035,1,1.52e6,1.58e6,1.07e6,1.24e6
Bx42,1,3.59e5 (active),,4.39e5,
CG32121,1,1.47e6,1.64e6,1.17e6,1.33e6
CG13171,1,1.58e6,1.54e6,1.23e6,1.30e6
Mtap,1,1.36e6,1.43e6,9.17e5,8.15e5
CG6479,1,1.40e6,1.50e6,1.06e6,1.12e6

Look-ups from above.
Value for CG7742 in “S2R+ cell number, rep 1”: 6.38e5
Result for CG34354 #2 in “S2R+ cell number, rep 1”: 5.34e5 (active)
Under “S2R+ cell number, rep 1”, CG8750 shows 1.38e6
For “S2R+ cell number, rep 1”, Act5C reads 9.28e5
Entry for CG44837 #2 in “Kc cell number, rep 1”: 1.38e6
Result of CG12464 in “S2R+ cell number, rep 1”: 1.23e6
